This is one part of the list.
system: T1, CTL2-GFP (C. trachomatis L2/434/Bu, GFP-expressing); parameters: species or system HeLa; Intracellular C. trachomatis growth in HeLa cells, bulk GFP fluorescence relative to DMSO; settings: bulk GFP, single well; 28.5 h, 10 µM; inhibitor
T1 construct: L2/434/Bu, GFP-expressing

Row | Compound | % of control remaining [%]
1 | O=C1/C(=C/c2ccc(OCc3cccc([N+](=O)[O-])c3)cc2)SC(=S)N1CCc1ccccc1 [CBK264641] | 123.142
2 | CN(C)C(=O)c1ccc(-c2ccc(OC3CCN(C(=O)CCC(=O)N4CCCC4)CC3)nc2)cc1 [CBK155051] | 88.6295
3 | CNC(=O)c1sc2ccccc2c1C1CCN(Cc2cnc(-c3ccc(C)cc3)nc2)C1 (stereo not shown) [CBK285883] | 83.6884
4 | O=C(OCc1nc2ccccc2[nH]1)N1CCOCC1 [CBK200146] | 89.5519
5 | O=C(Nc1ccc(-c2noc(COc3ccc(Br)cc3)n2)cc1)c1ccc2c(c1)OCO2 [CBK266692] | 146.055
6 | CC(C)(C)c1nn(CC2CCCCC2)c(=N)s1 [CBK075042] | 59.8572
7 | CCN1CCN(C(=O)c2cccc(N(C)C)c2)C(Cc2ccc(-c3ccncc3)cc2)C1=O (stereo not shown) [CBK285813] | 124.401
8 | CCC(Oc1nc2ccccc2nc1-c1ccccc1NC(C)=O)C(=O)c1ccccc1 (stereo not shown) [CBK267315] | 95.3441
9 | COCCNc1nc(-c2cccc(C(N)=O)c2)cnc1N [CBK063901] | 158.985
10 | Cc1cc(COc2nccnc2N2CCN(Cc3ccc([N+](=O)[O-])cc3)CC2)no1 [CBK084189] | 103.599
11 | O=C(CN1CCN(Cc2ccc3c(c2)OCO3)CC1)Nc1ccc(Cl)cc1C(=O)c1ccccc1 [CBK264241] | 90.3637
12 | COc1ccc(Cl)cc1NC(=S)NCCn1cc(Cl)cn1 [CBK267063] | 179.802
13 | Cn1c(NC(=O)c2ccccc2[N+](=O)[O-])cc(=O)n(C)c1=O [CBK294417] | 149.901
14 | COc1cc(C(=O)Nc2cc(-c3nc4ncccc4o3)ccc2C)cc(OC)c1OC [CBK101133] | 100
15 | Fc1ccccc1CN(CCCn1ccnc1)Cc1ccncc1 [CBK282981] | 152.369
16 | COc1ccc(C2=C3NN=C(N)N3NN2)cc1 [CBK093662] | 115.368
17 | Oc1ccc2ccccc2c1/C=N/Nc1nnn[nH]1 [CBK262028] | 100
18 | N/C(=N/OCC(=O)Nc1cccc2ccccc12)c1nonc1N [CBK265234] | 125.934
19 | Cn1c2c(c(=O)n(C)c1=O)[C@H]1[C@H](O)[C@H](O)C[C@H]1C1(CCC1)N2 [CBK303250] | 146.094
20 | O=C(Oc1ccc2c(c1)C1C=CCC1C(C(=O)O)N2)c1ccc(Cl)cc1Cl (stereo not shown) [CBK265285] | 114.843
21 | CC(=O)Nc1ccc(C(=O)N2CCCC(c3cccc(Cc4ccc(Cl)cc4)n3)C2)cc1 (stereo not shown) [CBK286134] | 99.854
22 | CC(C)(C)N1C(=O)c2ccc(C(=O)NNC(=O)C(C#N)C(=O)c3ccc4c(c3)C(=O)N(C(C)(C)C)C4=O)cc2C1=O (stereo not shown) [CBK268652] | 144.029
23 | O=C(Nc1cccc2ccccc12)c1ccc(CSCc2ccccc2)cc1 [CBK263759] | 107.291
24 | Cc1ccn(-c2ccc(N3CCOC4(CCCC4)C3)nn2)n1 [CBK305262] | 102.093
25 | Cc1ccc(NC(=O)c2cnccn2)c(C)n1 [CBK200291] | 107.221
26 | COc1ccc(CCNC(=O)N2CCCC2C(=O)O)cc1 (stereo not shown) [CBK161386] | 131.828

Row | Compound | % of control remaining [%]
27 | COc1ccc(C(O)Cc2nc3ccccc3n2Cc2ccc(Cl)cc2)cc1 (stereo not shown) [CBK262143] | 112.506
28 | CC(=O)NCCc1nc2cc(NC(=O)c3ccc([N+](=O)[O-])cc3)ccc2n1C [CBK268368] | 112.323
29 | CS(=O)(=O)N1CCC(C(=O)NC(c2ccc(F)cc2)c2ccccn2)CC1 (stereo not shown) [CBK059696] | 108.511
30 | O=c1[nH]c2ccccc2n1CCCN1CCC(Oc2cncc(OCC3COc4ccccc4O3)n2)C1 (stereo not shown) [CBK084380] | 115.022
31 | COc1cccc(C(=O)N2CCC(NC(=O)Cc3ccc(F)cc3)CC2)c1 [CBK155027] | 111.489
32 | Cc1cccc2c1OCC[C@@H]2Oc1cncc(N2CCNCC2)n1 [CBK172310G] | 110.764
33 | Cc1nn(-c2ccccn2)c(C)c1[C@@H]1C=C[C@@H](NC(=O)CCC(=O)O)C1 [CBK289170] | 115.898
34 | O=C(NCc1c(OC(=O)c2cccc([N+](=O)[O-])c2)ccc2ccccc12)c1ccccc1 [CBK260919] | 102.622
35 | Cc1c(Cc2ccccc2)c(N2CCN(C3c4ccccc4-c4ccccc43)CC2)n2c(nc3ccccc32)c1C#N [CBK263124] | 109.612
36 | O=CN1CCc2c([nH]c3cc(F)ccc23)C12CCN(CCc1ccc3c(c1)OCO3)CC2 [CBK039614] | 72.5747
37 | CC(C)c1ccc(S(=O)(=O)Nc2cccc(SC(F)(F)F)c2)cc1 [CBK044581] | 39.5459
38 | Cc1ccc2n1CCN(C(=O)c1cc(-c3ccccn3)n[nH]1)C2C(C)C (stereo not shown) [CBK282447] | 132.834
39 | CS(=O)(=O)N[C@H]1CO[C@H]2[C@@H]1OC[C@@H]2Nc1nccc(-c2ccco2)n1 [CBK289525] | 130.249
40 | Cc1cc(C2(C(F)(F)F)C=C3c4ccccc4CC(C)(C)N3C2=O)cc(C)c1O (stereo not shown) [CBK017463] | 86.4434
41 | CCCS(=O)(=O)Nc1nccnc1-c1cccs1 [CBK050763] | 147.606
42 | COCCn1cc(C(=O)N2CCCC2c2cc(C)on2)c2ccccc21 (stereo not shown) [CBK305289] | 138.345
43 | FC(F)(F)c1cccc(Sc2cccs2)n1 [CBK115242] | 100
44 | COC[C@H]1CCCN1C(=O)CC[C@H]1CNC(=O)[C@@H]2[C@@H](CCN2C(C)C)N1C [CBK289038] | 103.245
45 | CCc1cccc2c(CN3CCc4c(nc(C)[nH]c4=O)C3)c[nH]c12 [CBK283993] | 113.582
46 | CC(C)(c1ccc(Oc2cccc(N)c2)cc1)c1ccc(Oc2cccc(N)c2)cc1 [CBK260958] | 76.8976
47 | O=C(O)CN1C(=O)C(O)=C(C(=O)c2ccc(Cl)cc2)C1c1ccccc1[N+](=O)[O-] (stereo not shown) [CBK263794] | 100
48 | CCC1(c2ccccc2)OCC(C2CCCCN2)O1 (stereo not shown) [CBK023284C] | 163.901
49 | CCN(CC(=O)NCc1ccc(F)cc1)C(=O)c1cc(C#N)c[nH]1 [CBK305221] | 72.5279
50 | CC(C)CN(Cc1cccs1)C(=O)c1cc2n(n1)CCCN(C)C2 [CBK306793] | 117.862
51 | COc1cccc(-c2noc(C3CCN(CCc4ccccc4)CC3)n2)c1 [CBK051455] | 90.25
52 | O=C(O)c1cccc(S(=O)(=O)N2CCC(C(=O)O)CC2)c1 [CBK267199] | 177.936

Row | Compound | % of control remaining [%]
53 | Cc1ccc(C(=O)NC(=O)CSc2nc(N)n[nH]2)cc1 [CBK267523] | 133.784
54 | O=C(Nc1nc(-c2cc3ccccc3o2)cs1)c1ccc(F)cc1 [CBK287756] | 104.271
55 | COc1cc(C(=S)N2CCN(C)CC2)ccc1OCC(N)=O [CBK269037] | 149.011
56 | O=C(O)c1cccc(NS(=O)(=O)c2ccc(CNC(=O)c3ccc(Cl)cc3)s2)c1 [CBK155085] | 123.81
57 | Cc1ccccc1OC(C)C(=O)Nc1ccccc1C(=O)N1CCOCC1 (stereo not shown) [CBK269753] | 96.2744
58 | CCOc1cc(/C=N/NC(=O)c2cncc(Br)c2)c(Br)c(Br)c1O [CBK261386] | 100.384
59 | CC(C)(CN)CN(Cc1ccccc1C(F)(F)F)C(=O)Nc1c(F)cccc1F [CBK026822C] | 109.111
60 | CC(C)(C)NCC(O)CO/N=C(/c1ccncc1)c1ccc(Br)cc1 (stereo not shown) [CBK023914G] | 111.817
61 | CC(=O)Nc1cccc(-c2cn3ccnc3c(N3CCN(C)CC3)n2)c1 [CBK037930] | 151.615
62 | CN1CCOCC(CNC(=O)c2ccc(-c3ccccc3CO)cc2)C1 (stereo not shown) [CBK307601] | 127.967
63 | Cc1ccn(CCNCc2cc(-c3ccc(Cl)cc3)c[nH]c2=O)n1 [CBK284727] | 107.584
64 | O=C(c1cccs1)N1C[C@@H]2CCCCN(C3CCOCC3)[C@@H]2C1 [CBK285503] | 86.0167
65 | CCOc1cc(C#N)cc(I)c1OCC(=O)O [CBK266326] | 147.432
66 | Cn1c(COc2ccccc2)nnc1SCC(=O)c1cccc([N+](=O)[O-])c1 [CBK268397] | 92.675
67 | COc1cc(/C=N/NC(=O)c2nonc2N)ccc1OC(=O)c1cc(F)c(F)cc1Cl [CBK262380] | 100
68 | C=CCS(=O)(=O)N1CCC(c2nc(C)n3c(C)csc23)CC1 [CBK285251] | 133.592
69 | N#Cc1ccccc1OCCO [CBK001443] | 119.748
70 | CCOC(=O)c1cnc(Nc2nc3ccccc3o2)nc1CSc1ncccn1 [CBK268885] | 152.865
71 | CS(=O)(=O)c1ccc(-c2c[nH]c([C@@H]3COCCN3Cc3ccccc3)n2)cc1 [CBK289300] | 140.289
72 | CCCC/C=C/c1cnc(N)c(-c2ccc(C(=O)NCCO)cc2)n1 [CBK064141] | 150.226
73 | Cc1cc(NC(=O)c2ccco2)c2ccccc2n1 [CBK116258] | 63.085
74 | O=C(NCCCn1ccnc1)c1ncoc1-c1ccccc1 [CBK283887] | 143.3
75 | CC(NC(=O)N1CCN(c2ccccc2)CC1)c1ccccc1 (stereo not shown) [CBK155207] | 116.323
76 | COc1ccc2nc(O)c(CN(c3ccccc3)S(=O)(=O)c3ccccc3)cc2c1 [CBK268093] | 127.917

Part of the list above, in CSV form:
Row,Compound,% of control remaining [%]
59,CC(C)(CN)CN(Cc1ccccc1C(F)(F)F)C(=O)Nc1c(F)cccc1F [CBK026822C],109.111
61,CC(=O)Nc1cccc(-c2cn3ccnc3c(N3CCN(C)CC3)n2)c1 [CBK037930],151.615
69,N#Cc1ccccc1OCCO [CBK001443],119.748
70,CCOC(=O)c1cnc(Nc2nc3ccccc3o2)nc1CSc1ncccn1 [CBK268885],152.865

From paper PMC12040169 (PLOS Biology, 2025)
